Literature values in article PMC6152407, “Molecular Mechanisms Underlying Inhibitory Binding of Alkylimidazolium Ionic Liquids to Laccase” (Molecules : A Journal of Synthetic Chemistry and Natural …, 2017).

Test system: tyrosinase
Design: method as in PMID 19112180
Conditions: 2% IL; cited from earlier work

| SMILES | right shift of optimal pH of tyrosinase |
| --- | --- |
| CCCCn1cc[n+](C)c1.COS(=O)(=O)[O-] [[Bmim]MeSO4] | 0.5 unit |
| CCCCn1cc[n+](C)c1.F[B-](F)(F)F [[Bmim]BF4] | 0.5 unit |
| CCCCn1cc[n+](C)c1.F[P-](F)(F)(F)(F)F [[Bmim]PF6] | not being affected |
